The record followed here is publication PMC6610666.

The chains behind the UniProt entries cited, without tags or fusion partners.
UniProt Q8R0K9: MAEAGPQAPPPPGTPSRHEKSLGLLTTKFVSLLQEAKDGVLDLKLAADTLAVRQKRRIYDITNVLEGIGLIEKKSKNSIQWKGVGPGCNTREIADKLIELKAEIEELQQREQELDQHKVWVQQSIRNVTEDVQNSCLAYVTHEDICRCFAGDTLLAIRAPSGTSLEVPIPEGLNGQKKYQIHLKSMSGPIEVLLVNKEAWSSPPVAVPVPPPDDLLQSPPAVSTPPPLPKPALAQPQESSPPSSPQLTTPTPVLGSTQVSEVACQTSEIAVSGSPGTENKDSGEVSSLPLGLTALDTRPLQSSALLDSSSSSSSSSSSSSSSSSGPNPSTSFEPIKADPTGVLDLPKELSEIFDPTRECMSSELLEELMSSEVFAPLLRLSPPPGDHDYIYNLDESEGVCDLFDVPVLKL

No constants are given. Whether binding was seen depends on the method and setting. In cells and extracts the contact can be indirect. Some results given as binding are weak or reduced against the parent protein; the word gives no strength.

This assay concerns the target GFP-E2F4 (wild-type mouse E2F4 fused to GFP) (mouse) (UniProt Q8R0K9). In words: co-IP; GFP-Trap (ChromoTek) on TKO mESCs transfected with the GFP-WT (GFP-E2F4) vector, 5.0 x 10^6 cells per pull-down; partners detected by immunoassay.

B1: YEATS2 (mouse ES cells) (protein, UniProt Q3TUF7 1-1407)
chain: MSGIKRTIKETDPDYEDVSVALPNKRHKAIESSARDAAVQKIETIIKEQFALEMKNKEHEIDVIDQRLIEARRMMDKLRACIVANYYASAGLLKVSEGLKTFDPMAFNHPAIKKFLESPSRSSSPTNQRSETPSANHSESDSLSQHNDFLSDKDNNSNVDVEERPPSTGEQRPSRKAGRDTSSISGSHKRELRNADLTGDETSRLFVKKTIVVGNVSKYIPPDKREENDQSTHKWMVYVRGSRREPSINHFVKKVWFFLHPSYKPNDLVEVREPPFHLTRRGWGEFPVRVQVHFKDSQNKRIDIIHNLKLDRTYTGLQTLGAETVVDVELHRHSLGEDSVYPQSSESDVCDAPPPTLTLPAAVKASAVAQSPEPAAAAPVGEGFPETTEAERHSTFYSLPSSLERTPTKVTTAQKVTFSSHGNSAFQPIASSCKIVPQSQVPNPESPGKSFQPITMSCKIVSGSPISTPSPSPLPRTPTSTPVHLKQGTASSGVSNPHVIVDKPGQVIGASTPSTGSPTSKLPVASQASQGTGSPIPKIHGSSFLTSTVKQEESLFASMPPLCPIGSHPKVQSPKAVTGGLGAFTKVIIKQEPGEAPHVSTTGAASQSAFPQYVTVKGGHMIAVSPQKQVISAGEGTTQSPKIAPSKVVGVPVGSALPSTVKQAVAISSGQILVAKASSSVTKAVGPKQVVTQGVAKAIVSGGGGTIVAQPVQTLTKTQVTAAGPQKSGSQGSVMATLQLPATNLANLANLPPGTKLYLTTNSKNPSGKGKLLLIPQGAILRATNNANLQSGSAAAGGSGSSGAGGGSGGGGGSGAGGTPSTSGPGGGPQHLTYTSYILKQTPQGTFLVGQPSPQTPGKQLTTASVVQGTLGVSSSSAQGQQTLKVISGQKTTLFTQAATAGQASLLKLPDNTLKSVPAAPQLAKPGTTMLRVAGGVITAAPSPAVAFSANGAVHQSEGSTPVSSSVGSIIKTPGQPQVCVSQATMATCKGPAAVAGTAASLVSAPSSISGKATVSGLLKVHSAQSSPQQAVLTIPSQLKPLSINTSGGVQTVLMPVNKVVQSFSTSKLPTTVLPISVPNQAAPSSAPVAIAKVKTEPETPGPNCISQENQVAVKTEESSELSNYVIKVDHLETIQQLLTAVVKKIPLITAKGDDASCFSAKSLEQYYGWNIGKRRAAEWQRAMTVRKVLQEILEKNPRFHHLTPLKTKHIAHWCRCHGYTPPDPESLRHDGDSIEDVLTQIDSEPECLSSFSTADDLCRKLEDLQQFQKREPENEEEVDILSLSEPLKTNIKKEQEEKQEEMRFYLPPTPGSGFVGDITQKIGITLQPVALHRNMYASVVEDMILKATEQLVSDILRQALAVGYQTASPNRIPKEITVSNIHQAICNIPFLDFLTNKHMGRLNEDQ
On to B1, for which the binding entry is listed as “binds”.

B2: DP-1 (mouse ES cells) (protein, UniProt Q08639 1-410)
chain: MAKDASLIEANGELKVFIDQNLSPGKGVVSLVAVHPSTVNTLGKQLLPKTFGQSNVNITQQVVIGTPQRPAASNTIVVGSPHTPNTHFVSQNQTSDSSPWSAGKRNRKGEKNGKGLRHFSMKVCEKVQRKGTTSYNEVADELVAEFSAADNHILPNESAYDQKNIRRRVYDALNVLMAMNIISKEKKEIKWIGLPTNSAQECQNLEVERQRRLERIKQKQSQLQELILQQIAFKNLVQRNRQAEQQARRPPPPNSVIHLPFIIVNTSRKTVIDCSISNDKFEYLFNFDNTFEIHDDIEVLKRMGMACGLESGNCSAEDLKVARSLVPKALEPYVTEMAQGSIGGVFVTTTGSTSNGTRLSASDLSNGADGMLATSSNGSQYSGSRVETPVSYVGEDDDDDDDFNENDEED
For the molecule B2, the binding result is listed as “binds”.
